Results deposited as PubChem BioAssay AID1259405 (NCATS, 2018).
In all, the deposit lists about 50,000 reagents; below is a part drawn at random. In the full data, about 4,000 (8%) are marked active. 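Mouse siRNA library applied to hamster cells; one well for each siRNA.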 Reagents against one gene are numbered here.

- Purpose: 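Knock-downs that lift recombinant protein yield in hamster ovary cells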 (primary screen)
- Cells: Chinese hamster CHO-K1 ovary cells with stable secreted eGFP expression
- Reagents: single siRNA against mouse genes, 0.8 pmol siRNA per well (2 µl of 400 nM stock)
- Time to read-out: 3 days
- Measurement: 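Percent of the per-plate non-targeting control median for intracellular GFP per well by laser scanning cytometry and for cell viability by ATP luminescence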
- Scale: GFP, % of control: higher = more GFP per well, higher productivity; viability (ATP), % of control: higher = more viable cells (more ATP)
- Call rule: 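a knock-down is called active if GFP reaches 120% or more of non-targeting control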

target	siRNA no.	GFP, % of control	viability (ATP), % of control	Outcome
Trim34a	1	48.4	53.6	inactive
Trim34a	2	40	78.2	inactive
Trim34a	3	46.5	61.7	inactive
Lacc1	1	73.3	56.9	inactive
Lacc1	2	65.1	77.4	inactive
Lacc1	3	108	93.9	inactive
Dcun1d1	1	96.1	81	inactive
Dcun1d1	2	71.2	112	inactive
Dcun1d1	3	107	149	inactive
Gm5535	1	66.4	72.3	inactive
Gm5535	2	79.4	80.8	inactive
Gm5535	3	62.5	76.1	inactive
Csrnp3	1	95.9	68.7	inactive
Csrnp3	2	91.4	91.4	inactive
Csrnp3	3	86.3	77.4	inactive

Sorted by “viability (ATP), % of control” (ascending): some entries from above
target	siRNA no.	GFP, % of control	viability (ATP), % of control	Outcome
Lacc1	2	65.1	77.4	inactive
Dcun1d1	1	96.1	81	inactive
Lacc1	3	108	93.9	inactive
Dcun1d1	2	71.2	112	inactive

More results:
target	siRNA no.	GFP, % of control	viability (ATP), % of control	Outcome
Nmnat2	1	103	80	inactive
Nmnat2	2	85.4	77.4	inactive
Nmnat2	3	44.8	40.4	inactive
Or10j3b	1	105	71.8	inactive
Or10j3b	2	76.6	75.9	inactive
Or10j3b	3	68.4	32.9	inactive
Hoxb7	1	112	67	inactive
Hoxb7	2	90.1	73.9	inactive
Hoxb7	3	87.7	108	inactive
Nrbp1	1	71.4	51.6	inactive
Dlx2	1	61.9	54.2	inactive
Dlx2	2	92.6	102	inactive
Dlx2	3	58.4	69.9	inactive
Rasip1	1	81.7	84.6	inactive
Rasip1	2	166	74.6	active
Rasip1	3	49.5	66	inactive
Poln	1	123	69.7	active
Poln	2	69.8	84.2	inactive
Poln	3	83.4	88.9	inactive
